We go through one substance from patent publication US5948754A (Takeda Chemical Industries, Ltd., priority 1993, dated 1999).

A short description of this data set: general procedure: solution-phase peptide synthesis; DCC/HONB (ONB active esters). To be noted: purification step.

Strings that start with PEPTIDE1 are HELM notation: dots part the residues, brackets hold end groups and non-standard residues.

Regarding “PEPTIDE1{[dD].[Asp(B7)].D.[D-gMeLeu].L.[dW]}$PEPTIDE1,PEPTIDE1,1:R1-6:R2$$$V2.0”, the step yield result is listed as “preparatory HPLC recovery 32%”.
